# Construct, isoform or probe ends are uncertain for at least one entry. The comparison behind a weaker result is the experiment's own reference, which may not be listed here. Where a protein sequence is shown, tags need not be part of it.
# Biological target: T1, SlDOF9-His (Solanum lycopersicum) (UniProt A0A3Q7FC45)
# T1 sequence (looked up, limits assumed): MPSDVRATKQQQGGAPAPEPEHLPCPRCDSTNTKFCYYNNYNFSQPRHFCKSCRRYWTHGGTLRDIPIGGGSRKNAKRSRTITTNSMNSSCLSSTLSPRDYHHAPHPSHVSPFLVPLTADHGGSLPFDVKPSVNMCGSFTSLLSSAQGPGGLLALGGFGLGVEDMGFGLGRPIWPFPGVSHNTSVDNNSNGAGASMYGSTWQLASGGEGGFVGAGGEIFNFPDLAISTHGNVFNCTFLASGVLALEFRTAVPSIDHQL
# Test: EMSA (supershift)
# Details: anti-His antibody, two-base mutation not sufficient to prevent binding, legend: abolished or reduced; Biotin-labeled and unlabeled probes with purified protein and anti-His antibody, room temperature, 30 min; buffer from kit, salt and pH not stated; recombinant protein; protein details: C-terminal His
sequence,measurement,value
AGCCAGACATGAAAATACAATAATTCTCATT (double strand) [TS2m],binding result,binds more weakly

# — PMC12302606, “The SlDOF9‐SlSWEET17 Module: a Switch for Controlling Sugar Distribution Between Nematode Induced Galls and Roots in Tomato”
